Measurements: paper PMC7151078, “A Novel NMDA Receptor Antagonist Protects against Cognitive Decline Presented by Senescent Mice” (Pharmaceutics, 2020)

Columns and labels:
Format in all cases: in vivo, mouse
[1] = system: SAMR1 and SAMP8 mice; assay: Three-chamber test (TCT); conditions: 5 mg/Kg oral (drinking water), mean ± SEM
Procedure: Male SAMR1 and SAMP8 mice (n = 41) with 20-weeks-old were used to carry out cognitive and molecular analysis. The animals were randomly divided into four groups: SAMR1 control (SR1 Ct) group (n = 11), SAMP8 control (SP8 Ct) group (n = 8), SAMR1 treated with RL-208 (SR1 RL-208 (5 mg/Kg)) group (n = 10) and SAMP8 treated with RL-208 (SP8 RL-208 (5 mg/Kg)) group (n = 12). Animals had free access to food and water, under standard temperature conditions (22±2 °C) and 12h:12h light-dark cycles (300 lux/0 lux). RL-208, (3,4,8,9-tetramethyltetracyclo[4.4.0.0^3,9.0^4,8]dec-1-yl)-methylamine hydrochloride, (5 mg/kg/day) was administered through drinking water for four weeks before starting the cognitive test. RL-208 was administered up to euthanasia (Figure 1A). Water consumption was controlled each week for each cage and strain. Afterwards, RL-208 concentration was adjusted accordingly to reach the optimal dose for each cage.
The three-chamber test (TCT) was used to assess preference for social novelty (time spent with a novel intruder in contrast with a familiar one) and sociability (time spent with rodents). The apparatus consisted of a rectangular box with partitions separating the box into three chambers (Figure 1B). Each chamber was 15 × 15 × 20 cm with square openings. Testing occurs in a box with three equally dimensioned rooms. Each test consists of 15 minutes and is recorded with a camera. The animal is placed in the center of the box and allowed to explore the three chambers for 5 minutes. The time spent in each chamber was evaluated. Then, an intruder (same-sex and age) was added to one of the rooms in a metal cup, and behaviour is recorded for 10 minutes. The time spent in each chamber is evaluated as well as the time interacting with the intruder (e.g., sniffing, rears, entries in each chamber).

[2] = system: SAMR1 and SAMP8 mice; assay: Object location test (OLT); conditions: 5 mg/Kg, mean ± SEM
Procedure: Male SAMR1 and SAMP8 mice (n = 41) with 20-weeks-old were used to carry out cognitive and molecular analysis. The animals were randomly divided into four groups: SAMR1 control (SR1 Ct) group (n = 11), SAMP8 control (SP8 Ct) group (n = 8), SAMR1 treated with RL-208 (SR1 RL-208 (5 mg/Kg)) group (n = 10) and SAMP8 treated with RL-208 (SP8 RL-208 (5 mg/Kg)) group (n = 12). Animals had free access to food and water, under standard temperature conditions (22±2 °C) and 12h:12h light-dark cycles (300 lux/0 lux). RL-208, (3,4,8,9-tetramethyltetracyclo[4.4.0.0^3,9.0^4,8]dec-1-yl)-methylamine hydrochloride, (5 mg/kg/day) was administered through drinking water for four weeks before starting the cognitive test. RL-208 was administered up to euthanasia (Figure 1A). Water consumption was controlled each week for each cage and strain. Afterwards, RL-208 concentration was adjusted accordingly to reach the optimal dose for each cage. The object location test (OLT) is a well-established task based on the spontaneous tendency of rodents to spend more time exploring a novel object location than a familiar object location, as well as to recognize when an object has been relocated. The test was carried out for 3 days in a wooden box (50 × 50 × 25 cm), in which three walls were white except one that was black (Figure 1C). The first day, the box was empty, and the animals just habituated to the open field arena for 10 minutes. The second day, two objects were placed in front of the black wall, equidistant from each other and the wall. The objects were 10-cm high and identical. The animals were placed into the open field arena and allowed to explore both objects and surroundings for 10 minutes. Afterwards, animals were returned to their home cages, and the OLT apparatus was cleaned with 70% ethanol. On the third day, one object was moved in front of the white wall to test the spatial memory. Trials were recorded using a camera mounted above the open field area, and the total exploration time was determined by scoring the amount of time (seconds) spent sniffing the object in the new location (TN) and the object in the old location (TO). In order to evaluate the cognitive performance, the DI was calculated, which is defined as (TN-TO)/(TN+TO).

[3] = system: SAMR1 and SAMP8 mice; assay: Novel object recognition test (NORT); conditions: 5 mg/Kg, mean ± SEM
Procedure: Male SAMR1 and SAMP8 mice (n = 41) with 20-weeks-old were used to carry out cognitive and molecular analysis. The animals were randomly divided into four groups: SAMR1 control (SR1 Ct) group (n = 11), SAMP8 control (SP8 Ct) group (n = 8), SAMR1 treated with RL-208 (SR1 RL-208 (5 mg/Kg)) group (n = 10) and SAMP8 treated with RL-208 (SP8 RL-208 (5 mg/Kg)) group (n = 12). Animals had free access to food and water, under standard temperature conditions (22±2 °C) and 12h:12h light-dark cycles (300 lux/0 lux). RL-208, (3,4,8,9-tetramethyltetracyclo[4.4.0.0^3,9.0^4,8]dec-1-yl)-methylamine hydrochloride, (5 mg/kg/day) was administered through drinking water for four weeks before starting the cognitive test. RL-208 was administered up to euthanasia (Figure 1A). Water consumption was controlled each week for each cage and strain. Afterwards, RL-208 concentration was adjusted accordingly to reach the optimal dose for each cage. The novel object recognition test (NORT) allows evaluating short- and long-term recognition memory involving cortical areas and the hippocampus. The experimental apparatus used for this test was a 90º, two-arm, 25-cm-long, 20-cm-high, and a 5-cm-wide black maze of black polyvinyl chloride (Figure 1D). The walls could be removed for easy cleaning with 70% ethanol to eliminate olfactory cues, and light intensity in mid-field was 30 lux. The objects to be discriminated were made of plastic and chosen not to frighten mice and without any part likely to be bitten. Before performing the test, the mice were individually habituated to the apparatus for 10 min during 3 consecutive days. On day four the next day, the animals were allowed to explore freely a 10 min acquisition trial (First trial), during which they were placed in the maze in the presence of two identical novel objects (A+A’ or B+B’) at the end of each arm. The mouse was then removed from the apparatus and returned to its home cage. A 10 min retention trial (Second trial) was carried out two hours later. […] The time that mice explored the novel object (TN) and time that mice explored the old object (TO) were measured from the video recordings from each trial session Exploration of an object was defined as pointing the nose towards the object at a distance ≤2 cms and/or touching it with the nose. […] To avoid object preference biases objects A and B were counterbalanced so that one-half of the animals in each experimental group were first exposed to object A and then to object B, whereas the other half first saw object B and then object A. To evaluate the cognitive performance, the discrimination index (DI) was calculated, which is defined as (TN-TO)/(TN+TO).

## CC12CC3CC1(C)C1(C)CC3(CN)CC21C.Cl [RL-208, (3,4,8,9-tetramethyltetracyclo [4.4.0.0^3,9.0^4,8]dec-1-yl)methylamine hydrochloride]
[1]; SP8 mice
  Time in Chamber: Habituation, Center zone: 53.35 ± 6.20 s
  Time in Chamber: Habituation, Left zone: 97.55 ± 9.68 s
  Time in Chamber: Habituation, Right zone: 149.10 ± 10.41^$ sec
[1]; SR1 mice
  Time in Chamber: Habituation, Center zone: 104.71 ± 17.62 s
  Time in Chamber: Habituation, Left zone: 108.57 ± 23.52 s
  Time in Chamber: Habituation, Right zone: 86.72 ± 17.61 s
[2]; SP8 mice
  Time spent exploring objects: Habituation phase, Object A1: 23.13 ± 2.09 s
  Time spent exploring objects: Habituation phase, Object A2: 26.47 ± 2.87 s
[2]; SR1 mice
  Time spent exploring objects: Habituation phase, Object A1: 21.96 ± 1.96 s
  Time spent exploring objects: Habituation phase, Object A2: 25.78 ± 3.06 s
[3]; SP8 mice
  Time spent exploring objects: Familiarization phase, Left object: 39.63 ± 4.29 s
  Time spent exploring objects: Familiarization phase, Right Object: 41.27 ± 3.07 s
[3]; SR1 mice
  Time spent exploring objects: Familiarization phase, Left object: 39.88 ± 4.06 s
  Time spent exploring objects: Familiarization phase, Right Object: 41.08 ± 2.56 s
